From patent publication US5413915A (priority 1991, dated 1995)

Key:
rat liver microsomes [1] = assay: Color development in detection elements with different leuco dyes (Table 2); format: biochemical; details: dye response versus leuco-PRA response over test chemicals
Protocol: Solutions containing 0.5 mM of the respective dyes in 0.1 M TRIS buffer, pH=7.4 (except for nitro blue tetrazolium, 5.0 mM in 50% ethanolic TRIS, pH=7.4) were bleached with a few crystals of sodium sulfite or sodium dithionite, then plied in 0.02 mL aliquots as test spots on a clear sheet of transparency film. Spontaneous color development in air was noted (Table 2). Subsequently, a suspension of rat liver microsomes containing 1 mM NADPH and 1 mg/mL gelatin in 0.1 M TRIS-MOPS buffer (pH=7.7) was plied in 0.05 mL aliquots over the dried leuco-dye test spots. After drying, color development condition was noted, and the test spots saved for exposure tests to chemical substances (Table 2). Exposures were carried out by layering 0.01 mL of 0.1-1.0 M solutions of test chemical substances onto the test spots, and changes in color noted over time.

rat liver microsomes [2] = assay: Wipe test of coated glove with detection element (Example 11); format: biochemical; details: for Estimated metabolized dose: about 1/3 of microsomes benzo(a)pyrene-induced
[3] = absorption spectrum of exposed element

Row | Compound | Concordance to PRA (rat liver microsomes [1]) | also measured
1 | Cc1cc2nc3cc(C)c(N)cc3[n+](-c3ccccc3)c2cc1N.[Cl-] [Safranin O] | 1/5 | –
2 | c1ccc2c(c1)cc1ccc3cccc4ccc2c1c34 [Benzo(a)pyrene] | – | Estimated metabolized dose (rat liver microsomes [2]): approximately 93 nmols; Residual unmetabolized compound in detection element (rat liver microsomes [2]; [3]): 7 nmols
3 | Oc1ccccc1 [Phenol] | – | Estimated metabolized dose (rat liver microsomes [2]): ~20 nmols; Metabolites, as 1,4-benzoquinone (rat liver microsomes [2]; [3]): ~20 nmols
4 | methyl violet | 4/5 | –
5 | CN(C)c1ccc(C(=C2C=CC(=[N+](C)C)C=C2)c2ccc([N+](C)(C)C)cc2)cc1.[Cl-].[Cl-] [Methyl Green, methyl green] | 3/5 | –
6 | Nile Blue A | 4/5 | –
7 | COc1cc(-c2ccc(-n3nc(-c4ccccc4)n[n+]3-c3ccc([N+](=O)[O-])cc3)c(OC)c2)ccc1-n1nc(-c2ccccc2)n[n+]1-c1ccc([N+](=O)[O-])cc1 [NBTZ, Nitro Blue Tetrazolium] | 0/5 | –
8 | Nc1c(N=Nc2ccc([N+](=O)[O-])cc2)c(S(=O)(=O)O)cc2cc(S(=O)(=O)O)c(N=Nc3ccccc3)c(O)c12 [Naphthol Blue-Black, Naphthol Blue Black] | 1/5 | –
